In US5919649:

Biological target: CREB beta-galactosidase fusion (lambda gt11 phage G1, placental cDNA) (Homo sapiens) (UniProt P16220)
Experiment: binding assay
Details: protein in a lysate after overexpression

| Sequence | binding result (bromodeoxyuridine incorporated, UV crosslinking of lysogen extract, competed by unlabelled CRE, label: radioactive body label) | binding result (expressed protein on nitrocellulose probed with labelled duplex, label: radioactive) |
| --- | --- | --- |
| AAAGCCAGAGGTGTCTGACGTCATGCTTTATAACATCCTCTTGATTAGCTA (double strand) [CRE UV-crosslinking probe] | binds | – |
| GATCCGGCTGACGTCATCAAGCTA (double strand) [CRE probe] | – | binds |

The exact form of at least one protein or probe is not confirmed. Results from cells or extracts need not show a direct contact.
